Reference: the supplement of paper PMC11006884
Only a part is listed here, and it is no random draw. The data scatter; read single values as rough.

By UniProt entry, the sequences of proteins in these tests, tags left out. Where a name states a change or a piece, a line headed by the entry shows the natural chain unless it says otherwise.
UniProt O14893: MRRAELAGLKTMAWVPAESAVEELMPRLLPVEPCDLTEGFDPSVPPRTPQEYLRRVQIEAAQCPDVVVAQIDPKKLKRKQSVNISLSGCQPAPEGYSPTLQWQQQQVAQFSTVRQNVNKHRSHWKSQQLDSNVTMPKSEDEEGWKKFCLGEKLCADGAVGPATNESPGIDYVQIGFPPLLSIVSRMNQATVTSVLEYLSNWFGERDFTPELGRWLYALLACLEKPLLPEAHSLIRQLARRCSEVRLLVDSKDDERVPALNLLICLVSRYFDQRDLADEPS
UniProt O15260: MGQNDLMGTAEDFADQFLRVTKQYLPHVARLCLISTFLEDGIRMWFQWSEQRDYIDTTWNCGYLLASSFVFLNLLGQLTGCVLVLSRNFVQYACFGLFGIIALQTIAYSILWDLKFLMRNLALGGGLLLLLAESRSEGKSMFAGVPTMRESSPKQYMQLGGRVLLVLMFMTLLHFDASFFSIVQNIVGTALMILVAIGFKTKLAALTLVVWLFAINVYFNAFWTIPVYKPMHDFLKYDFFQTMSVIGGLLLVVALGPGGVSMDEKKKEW
UniProt O00567: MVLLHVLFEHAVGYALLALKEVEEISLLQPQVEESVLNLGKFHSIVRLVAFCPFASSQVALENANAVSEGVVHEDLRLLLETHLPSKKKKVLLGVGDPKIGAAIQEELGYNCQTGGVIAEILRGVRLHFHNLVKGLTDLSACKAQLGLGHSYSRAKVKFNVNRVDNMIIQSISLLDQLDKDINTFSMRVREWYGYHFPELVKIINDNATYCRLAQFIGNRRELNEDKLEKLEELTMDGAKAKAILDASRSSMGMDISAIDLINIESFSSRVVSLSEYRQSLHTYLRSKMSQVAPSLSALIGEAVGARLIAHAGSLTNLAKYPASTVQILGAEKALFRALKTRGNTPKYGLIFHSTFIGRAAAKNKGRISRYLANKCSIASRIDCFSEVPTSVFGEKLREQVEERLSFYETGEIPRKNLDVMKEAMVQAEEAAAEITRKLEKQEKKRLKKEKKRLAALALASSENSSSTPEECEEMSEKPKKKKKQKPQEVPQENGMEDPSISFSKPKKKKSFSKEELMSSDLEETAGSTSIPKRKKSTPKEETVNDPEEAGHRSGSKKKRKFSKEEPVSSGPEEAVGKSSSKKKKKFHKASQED
UniProt O43164: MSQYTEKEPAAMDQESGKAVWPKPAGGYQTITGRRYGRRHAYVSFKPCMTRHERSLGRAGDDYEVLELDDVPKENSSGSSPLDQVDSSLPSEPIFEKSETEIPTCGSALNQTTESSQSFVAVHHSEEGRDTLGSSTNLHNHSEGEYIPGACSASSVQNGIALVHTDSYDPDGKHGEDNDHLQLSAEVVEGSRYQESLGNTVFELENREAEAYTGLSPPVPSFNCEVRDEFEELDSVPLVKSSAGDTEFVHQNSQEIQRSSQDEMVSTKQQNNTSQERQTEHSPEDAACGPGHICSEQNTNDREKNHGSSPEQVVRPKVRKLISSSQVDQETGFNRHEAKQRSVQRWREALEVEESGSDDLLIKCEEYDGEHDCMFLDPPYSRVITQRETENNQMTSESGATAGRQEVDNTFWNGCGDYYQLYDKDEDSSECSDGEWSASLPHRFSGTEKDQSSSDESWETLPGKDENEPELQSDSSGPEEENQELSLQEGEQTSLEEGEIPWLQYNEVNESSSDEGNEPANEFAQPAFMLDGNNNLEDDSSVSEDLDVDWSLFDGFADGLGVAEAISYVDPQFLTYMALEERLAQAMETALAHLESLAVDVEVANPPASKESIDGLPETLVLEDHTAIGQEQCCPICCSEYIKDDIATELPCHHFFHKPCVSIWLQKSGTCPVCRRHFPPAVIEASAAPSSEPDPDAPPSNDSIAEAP
UniProt O00148, whole entry, looked up: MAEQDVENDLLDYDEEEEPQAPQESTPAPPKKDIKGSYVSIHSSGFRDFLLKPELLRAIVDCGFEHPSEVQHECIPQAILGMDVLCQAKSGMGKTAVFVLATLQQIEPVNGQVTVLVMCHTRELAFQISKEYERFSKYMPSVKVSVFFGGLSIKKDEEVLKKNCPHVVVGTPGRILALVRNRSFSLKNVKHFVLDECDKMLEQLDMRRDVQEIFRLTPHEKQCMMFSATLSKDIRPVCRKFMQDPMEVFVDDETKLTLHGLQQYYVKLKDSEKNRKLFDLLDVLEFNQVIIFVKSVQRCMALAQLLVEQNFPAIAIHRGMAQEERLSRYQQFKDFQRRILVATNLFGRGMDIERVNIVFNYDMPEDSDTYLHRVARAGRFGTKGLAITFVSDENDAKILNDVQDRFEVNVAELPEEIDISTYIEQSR
UniProt O15226: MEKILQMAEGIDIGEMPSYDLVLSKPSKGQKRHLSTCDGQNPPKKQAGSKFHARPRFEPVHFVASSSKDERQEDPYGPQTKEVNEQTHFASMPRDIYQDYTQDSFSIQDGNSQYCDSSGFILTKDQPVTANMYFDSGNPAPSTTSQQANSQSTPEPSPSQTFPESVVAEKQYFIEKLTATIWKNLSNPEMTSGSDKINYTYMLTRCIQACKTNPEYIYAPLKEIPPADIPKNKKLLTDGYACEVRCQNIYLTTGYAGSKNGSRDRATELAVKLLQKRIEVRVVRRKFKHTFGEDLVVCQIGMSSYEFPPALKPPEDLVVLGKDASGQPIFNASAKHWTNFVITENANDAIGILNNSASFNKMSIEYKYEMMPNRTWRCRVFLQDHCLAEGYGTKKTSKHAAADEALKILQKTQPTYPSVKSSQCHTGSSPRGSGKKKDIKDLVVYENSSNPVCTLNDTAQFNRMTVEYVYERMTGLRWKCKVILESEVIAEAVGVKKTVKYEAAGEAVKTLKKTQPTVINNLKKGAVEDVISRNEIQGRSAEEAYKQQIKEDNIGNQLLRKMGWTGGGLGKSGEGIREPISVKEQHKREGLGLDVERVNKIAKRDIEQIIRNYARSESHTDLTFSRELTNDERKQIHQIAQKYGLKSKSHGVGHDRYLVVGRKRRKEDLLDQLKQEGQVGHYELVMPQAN
UniProt O00151: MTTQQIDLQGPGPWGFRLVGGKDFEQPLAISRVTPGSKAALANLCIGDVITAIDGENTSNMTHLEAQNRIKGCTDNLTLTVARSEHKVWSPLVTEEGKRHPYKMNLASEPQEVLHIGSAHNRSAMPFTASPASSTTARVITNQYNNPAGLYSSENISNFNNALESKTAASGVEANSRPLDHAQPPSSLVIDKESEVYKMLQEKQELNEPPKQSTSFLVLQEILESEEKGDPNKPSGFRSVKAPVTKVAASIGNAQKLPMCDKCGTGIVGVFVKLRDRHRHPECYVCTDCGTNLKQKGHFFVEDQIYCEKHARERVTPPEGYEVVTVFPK
UniProt O14802: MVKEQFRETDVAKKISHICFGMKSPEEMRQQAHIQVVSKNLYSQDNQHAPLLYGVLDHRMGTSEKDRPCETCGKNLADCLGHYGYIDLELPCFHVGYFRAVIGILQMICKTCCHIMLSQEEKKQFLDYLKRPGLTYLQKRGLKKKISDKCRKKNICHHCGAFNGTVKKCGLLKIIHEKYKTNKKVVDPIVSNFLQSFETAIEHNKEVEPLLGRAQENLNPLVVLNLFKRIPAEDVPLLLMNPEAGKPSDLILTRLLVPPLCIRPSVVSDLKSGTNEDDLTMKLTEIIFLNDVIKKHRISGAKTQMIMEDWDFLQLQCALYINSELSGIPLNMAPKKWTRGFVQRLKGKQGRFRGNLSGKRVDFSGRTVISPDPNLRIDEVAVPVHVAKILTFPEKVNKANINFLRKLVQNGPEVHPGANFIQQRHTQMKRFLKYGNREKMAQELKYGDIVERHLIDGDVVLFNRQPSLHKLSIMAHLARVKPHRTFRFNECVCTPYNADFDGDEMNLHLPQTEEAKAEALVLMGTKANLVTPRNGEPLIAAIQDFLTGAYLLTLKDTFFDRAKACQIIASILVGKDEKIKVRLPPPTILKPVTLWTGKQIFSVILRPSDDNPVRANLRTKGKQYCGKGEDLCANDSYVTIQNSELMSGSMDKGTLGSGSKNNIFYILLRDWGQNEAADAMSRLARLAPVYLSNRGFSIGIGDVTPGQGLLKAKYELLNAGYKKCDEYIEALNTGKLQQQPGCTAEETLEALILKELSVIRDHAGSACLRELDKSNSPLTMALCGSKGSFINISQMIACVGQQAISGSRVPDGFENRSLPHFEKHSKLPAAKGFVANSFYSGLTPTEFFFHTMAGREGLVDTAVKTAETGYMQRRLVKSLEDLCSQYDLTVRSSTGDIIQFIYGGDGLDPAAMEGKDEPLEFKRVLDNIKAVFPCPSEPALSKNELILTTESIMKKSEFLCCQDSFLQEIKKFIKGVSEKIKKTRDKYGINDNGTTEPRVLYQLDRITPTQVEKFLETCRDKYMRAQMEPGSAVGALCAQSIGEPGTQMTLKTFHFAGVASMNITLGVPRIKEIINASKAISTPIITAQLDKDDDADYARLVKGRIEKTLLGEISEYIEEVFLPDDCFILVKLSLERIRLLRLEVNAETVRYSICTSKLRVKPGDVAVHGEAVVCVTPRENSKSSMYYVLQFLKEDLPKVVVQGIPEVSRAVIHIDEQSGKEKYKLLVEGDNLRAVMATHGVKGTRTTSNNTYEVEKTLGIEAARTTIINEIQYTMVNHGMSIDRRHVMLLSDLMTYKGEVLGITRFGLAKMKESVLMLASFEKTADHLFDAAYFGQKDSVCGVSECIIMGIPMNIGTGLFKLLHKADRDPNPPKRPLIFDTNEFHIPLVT
UniProt O00762: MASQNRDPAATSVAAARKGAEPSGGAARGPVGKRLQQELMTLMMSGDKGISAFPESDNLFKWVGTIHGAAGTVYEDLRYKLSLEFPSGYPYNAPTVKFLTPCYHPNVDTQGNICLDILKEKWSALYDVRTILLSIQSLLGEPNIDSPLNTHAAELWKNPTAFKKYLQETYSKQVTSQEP
UniProt O15085: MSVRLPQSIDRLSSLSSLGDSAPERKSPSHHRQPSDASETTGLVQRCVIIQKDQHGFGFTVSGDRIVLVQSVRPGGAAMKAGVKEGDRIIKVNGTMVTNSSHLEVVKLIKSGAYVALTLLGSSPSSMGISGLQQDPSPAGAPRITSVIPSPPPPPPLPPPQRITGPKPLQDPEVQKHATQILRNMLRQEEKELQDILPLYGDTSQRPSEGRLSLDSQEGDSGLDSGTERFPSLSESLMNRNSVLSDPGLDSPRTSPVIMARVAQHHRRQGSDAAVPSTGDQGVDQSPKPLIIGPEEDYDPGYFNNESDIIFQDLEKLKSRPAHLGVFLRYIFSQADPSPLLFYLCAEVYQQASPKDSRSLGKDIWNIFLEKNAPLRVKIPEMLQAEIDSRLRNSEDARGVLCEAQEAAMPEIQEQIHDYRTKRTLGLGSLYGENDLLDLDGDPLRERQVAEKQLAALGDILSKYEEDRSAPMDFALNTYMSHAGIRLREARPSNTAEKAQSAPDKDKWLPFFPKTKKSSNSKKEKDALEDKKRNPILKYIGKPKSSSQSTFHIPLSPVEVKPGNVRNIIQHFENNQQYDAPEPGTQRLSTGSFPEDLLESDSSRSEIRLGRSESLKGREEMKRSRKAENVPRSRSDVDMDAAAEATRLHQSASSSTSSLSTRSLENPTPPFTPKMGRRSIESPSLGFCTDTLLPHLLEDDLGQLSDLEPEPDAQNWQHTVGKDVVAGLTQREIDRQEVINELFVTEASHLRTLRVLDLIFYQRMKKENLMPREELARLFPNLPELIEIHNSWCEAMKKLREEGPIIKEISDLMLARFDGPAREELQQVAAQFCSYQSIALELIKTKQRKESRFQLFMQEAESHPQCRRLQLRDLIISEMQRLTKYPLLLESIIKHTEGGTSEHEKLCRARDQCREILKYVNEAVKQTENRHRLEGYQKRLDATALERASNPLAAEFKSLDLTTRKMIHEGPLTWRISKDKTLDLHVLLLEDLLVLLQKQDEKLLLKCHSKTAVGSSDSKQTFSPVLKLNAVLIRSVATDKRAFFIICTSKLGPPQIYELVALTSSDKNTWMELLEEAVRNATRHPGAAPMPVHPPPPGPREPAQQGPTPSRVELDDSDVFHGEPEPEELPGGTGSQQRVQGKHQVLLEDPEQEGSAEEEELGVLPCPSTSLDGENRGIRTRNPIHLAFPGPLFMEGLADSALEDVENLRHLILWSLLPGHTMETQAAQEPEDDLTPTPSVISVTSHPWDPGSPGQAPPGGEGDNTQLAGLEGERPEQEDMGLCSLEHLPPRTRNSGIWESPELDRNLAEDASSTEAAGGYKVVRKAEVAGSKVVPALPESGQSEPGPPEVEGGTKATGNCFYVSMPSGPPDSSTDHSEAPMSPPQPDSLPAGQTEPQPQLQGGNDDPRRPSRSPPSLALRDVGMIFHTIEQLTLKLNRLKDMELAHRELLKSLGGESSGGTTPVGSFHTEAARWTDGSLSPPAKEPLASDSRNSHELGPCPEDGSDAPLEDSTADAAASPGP

Compound: COC(=O)/C=C/c1ccccc1 [methyl cinnamate]
Assay: log2 ratio of iodoacetamide-alkyne labeling of the cysteine site, DMSO over compound (competition); higher = stronger covalent engagement of the cysteine by the compound, active = 1 or more
Details: 500 µM; treatment time 1 h; system: HEK293T cell lysate
How it was run: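 The log2 competition ratio per cysteine is defined as mean reporter intensity in control channels over mean reporter intensity in compound channels. Lysate from HEK293T cells (2 mg/mL) received electrophile (500 µM) or vehicle for 1 h at ambient temperature, followed by iodoacetamide alkyne for 1 h. Samples were clicked to sCIP-TMT reagents, pooled, trypsin-digested overnight at 37 °C, streptavidin-enriched, acid-eluted and run on Orbitrap Eclipse LC-MS/MS with FAIMS, with quantification in FragPipe. Three replicates with duplicate channels were used, and any cysteine quantified in only one replicate was excluded.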

Target	log2 ratio of iodoacetamide-alkyne labeling
SUPT5H C740 (UniProt O00267)	inactive: 0.0441
GEMIN2 C63 (UniProt O14893)	inactive: -0.00803
POLRMT C535 (UniProt O00411)	inactive: -0.131
SURF4 C32 (UniProt O15260)	inactive: 0.387
UniProt O00567_C112	inactive: 0.0351
PJA2 C224 (UniProt O43164)	inactive: -0.122
UniProt O00148_C223	inactive: 0.105
ZZEF1 C2466 (UniProt O43149)	inactive: -0.217
NKRF C424 (UniProt O15226)	inactive: 0.165
PDLIM1 C283 (UniProt O00151)	inactive: 0.0113
UniProt O15063_C512	inactive: 0.339
UniProt O00567_C52	inactive: -0.262
POLR3A C960 (UniProt O14802)	inactive: 0.478
UBE2C C114 (UniProt O00762)	inactive: 0.461
ARHGEF11 C402 (UniProt O15085)	inactive: 0.196

Taken from the entries so far for reference:
Target	log2 ratio of iodoacetamide-alkyne labeling
POLR3A C960 (UniProt O14802)	inactive: 0.478
UBE2C C114 (UniProt O00762)	inactive: 0.461
ARHGEF11 C402 (UniProt O15085)	inactive: 0.196
